Some of the results follow. Shown are side measurements of this screen, not its main read-out; they come without a call. Most of these compounds were active or inconclusive in the main read-out, so they are no random draw. Potencies come from curve fits of mixed quality, noted in brackets.

One may read the AC50 as the midpoint of the concentration-response curve, whichever way the signal moves. Higher therefore signals activity only at high concentration.

A short description of this experiment: qHTS Assay for Lipid Storage Modulators in Drosophila S3 Cells.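 For cell number change: cells counted by Cell Tracker Red CMTPX staining in the red channel.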 The note with it: BODIPY lipid droplet fluorescence, 18-24 h; for cell number change: measured here: cell count max response, cells fed with added oleic acid. Summed up:
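Drosophila S3 cells got compounds at several concentrations plus oleic acid (400 uM solution). Laser-scanning cytometry with 488 nm excitation read lipid droplets at 500-530 nm and cells at 575-640 nm. Percent activity was relative to 20 uM Triacsin C.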
(qHTS replaces the single test concentration by a dilution series.)

The mark [1] stands for this setting: measured here: lipid fluorescence (Fed channel) AC50, cells fed with added oleic acid.
[2] abbreviates: measured here: cell number channel AC50, cells fed with added oleic acid.

With `Cc1ccc(C)c(OCC(=O)N2CCc3ccccc3C2)c1`, the cell number change worked out at 28.2%. For the same compound, under setting [1], the AC50 is 14.6 µM [rising, single point].

Turning to `COc1ccc(CN(C)c2ncnc(N)n2)cc1`, the cell number change is -0.713%. The AC50 under setting [1] is 16.4 µM [falling, partial curve]. `Cc1cc(=O)oc(C)c1C(=O)NCc1ccco1`: the cell number change is -23.2%. Also, the AC50 under setting [2] is 0.0517 µM [falling, full curve]. Consider `COCCC(=O)N1CCC(Oc2ccc(C(=O)NCCCC3CCCC3)cc2)CC1`, for which the cell number change stood at 18.5%. In addition, the AC50 under setting [1] is 1.84 µM [rising, full curve, poor fit].

Regarding `Cc1nnc2ccc(-c3ccc(NS(=O)(=O)c4ccccc4F)cc3)nn12`, the half-maximal activity concentration (AC50) under setting [2] was 2.31 µM [rising, partial curve].

With `C#CCNC(=O)C1=C[C@H](C)[C@@H](CCCO)[C@H](OCC)O1`, the cell number change is -8.02%. Moreover, the AC50 under setting [1] is 7.31 µM [falling, single point]. `CCCCCCC(=O)NCC(=O)OCC(=O)c1ccccc1`: the cell number change was -32.7%. The AC50 under setting [2] is 4.61 µM [falling, full curve]. In addition, the half-maximal activity concentration (AC50) under setting [1] was 4.11 µM [falling, full curve].

As to `O=C(NNCC(O)COc1ccccc1)c1ccccc1` (stereo not drawn), the half-maximal activity concentration (AC50) reads like this: under setting [2], 0.00517 µM [falling, full curve, poor fit]; under setting [1], 0.731 µM [falling, full curve, poor fit]. As for `CC(OC(=O)Cn1cnc2c1c(=O)n(C)c(=O)n2C)C(=O)Nc1ccc(Cl)cc1` (stereo not drawn), the cell number change is -0.427%. For the same compound, the AC50 under setting [1] is 6.51 µM [rising, partial curve]. With `CCOC(=O)N1CCC(N2Cc3cccc(C(=O)NC(C)c4ccc5c(c4)OCCO5)c3C2=O)CC1` (stereo not drawn), the cell number change was -5.45%. In addition, under setting [1], the half-maximal activity concentration (AC50) was 0.82 µM [rising, single point].

`O=C1c2ccccc2OCOc2ccccc21`: the cell number change was -33.2%. Under setting [1], the concentration at half-maximal activity (AC50) is 0.461 µM [falling, full curve]. Take `CN(C)CC(O)COc1ccc(-c2ccc(C#N)cc2)cc1` (stereo not drawn): the cell number change was -63.5%. Also, the AC50 under setting [2] is 29.1 µM [falling, single point]. Also, under setting [1], the AC50 was 29.1 µM [falling, single point].

As for `COc1cc(C(=O)NC2CCN(Cc3ccccc3)CC2)cc(Cl)c1OC`, the cell number change came to 18%. Further, the AC50 under setting [1] is 2.06 µM [rising, full curve]. Consider `Cc1ccc(NC(=O)COc2ccc(/C=C3/SC(=Nc4ccccc4)N(Cc4cccnc4)C3=O)cc2)cc1`, for which the cell number change was -0.133%. On to `Cc1ccc(S(=O)(=O)N(C)CCCC(=O)Nc2ccncc2)cc1`, for which the cell number change was -19.5%. The AC50 under setting [1] was 5.17 µM [rising, full curve]. As to `Cc1cccc(/C=C/C(=O)c2ccc(N3CCOCC3)cc2)c1`, the AC50 under setting [1] is 6.51 µM [rising, single point].

For the compound `O=C(NCc1ccccn1)c1ccc(N2CCCC2=O)cc1`, the cell number change stood at 20.6%. In addition, under setting [1], the half-maximal activity concentration (AC50) is 23.1 µM [rising, single point].

Values taken from PubChem BioAssay AID2685 (National Center for Advancing Translational Sciences (NCATS), 2010).
